Reference: PMC12627016
Results are given in words; binding and its absence hold for the method and conditions named. For some assays here: In cells and extracts the contact can be indirect. Some binding calls cover weakened binding; strength is not graded here. For some assays here: Where a sequence is shown, tags or fusion partners need not be part of it. Values belong to the binder of their own block, whether it stands above or below them.

Columns and labels:
YNE-OsNRAT1 (rice) = molecular target: T1, YNE-OsNRAT1 (rice) (UniProt Q6ZG85); assay: split reporter; BiFC: YNE-OsNRAT1 and YCE-OsSPL1 co-infiltrated by Agrobacterium GV3101 into Nicotiana benthamiana leaves; YFP fluorescence by confocal microscopy after 48-72 h; empty YNE and YCE vectors as controls
T1 sequence: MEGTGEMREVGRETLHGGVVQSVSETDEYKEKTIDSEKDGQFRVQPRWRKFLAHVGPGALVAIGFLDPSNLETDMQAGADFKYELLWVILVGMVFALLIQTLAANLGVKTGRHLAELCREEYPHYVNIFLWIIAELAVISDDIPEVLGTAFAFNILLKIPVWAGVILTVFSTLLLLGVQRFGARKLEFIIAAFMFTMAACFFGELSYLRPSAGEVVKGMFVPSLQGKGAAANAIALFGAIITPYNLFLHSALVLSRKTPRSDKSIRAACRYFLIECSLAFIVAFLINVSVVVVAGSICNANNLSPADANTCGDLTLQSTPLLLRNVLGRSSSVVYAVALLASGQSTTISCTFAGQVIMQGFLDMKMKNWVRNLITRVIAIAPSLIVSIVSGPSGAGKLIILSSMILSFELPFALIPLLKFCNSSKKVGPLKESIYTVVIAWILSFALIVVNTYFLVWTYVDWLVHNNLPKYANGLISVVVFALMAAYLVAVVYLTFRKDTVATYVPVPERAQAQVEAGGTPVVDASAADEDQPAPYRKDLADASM

[1] = molecular target: T2, BD-OsNRAT1 (Nramp aluminum transporter 1) (rice) (UniProt Q6ZG85); assay: two-hybrid; BD-OsNRAT1 and AD-OsSPL1 co-transformed into Y2H Gold yeast; growth on SD/-Leu-Trp, SD/-Leu-Trp-His-Ade and SD/-Leu-Trp-His-Ade + X-α-Gal, 30°C, 3 to 5 days
T2 sequence: T1 sequence

binding (YNE-OsNRAT1 (rice)): binds
B1: YCE-OsSPL1 (protein, UniProt Q52RG7 47-539)
chain: AVADRGLRTVLLALAMTAIKLLPGVSAYINAEKRKVVDQLQSGGTSTKSTLRTELPTVGLSNQVINDLETLKARDVNWQGKCSGTVYIAGSESEGHFALINKAYSMFSHTNPLHQDVFKSVAQLEAEVVAMTAALLGIKEKSSGGQICGNMTSGGTESILLAVKTSRDYMRTKKGITKPEMIIAESAHSAYDKAAQYFNIKVRRVPVNKEFLADVKGFKRCINGNTIMMVGSAPGFPHGLIDPIEELGELASRYDICLHVDLCLGGFVLPFARKLGYPIPPFDFCVKGVTSISTDVHKYGLAPKGTSIVLYKNHEIRKHQFVAVTEWTGGLYVSPTIAGSRPGGLIAGAWAAMTSLGLNGYMENTGHIMEVSKKIQRGIEDIPGLFVIGKPDMTVVAFGSDSVDIFEVNDIMSSKGWHLNALQRPNSLHICVTLQHTVIYEEFLKDLKDSVDTVKANPGPISGGRAPIYGAAGKMPDRGMVRELLVEFMDASC

binding [1]: binds
B2: AD-OsSPL1 (sphingosine-1-phosphate lyase, full-length CDS) (protein, UniProt Q52RG7 1-539)
chain: MELAMDFALRLRDAANHHLSRYEPLVLLAAPLLALLAARTLHAAAAAVADRGLRTVLLALAMTAIKLLPGVSAYINAEKRKVVDQLQSGGTSTKSTLRTELPTVGLSNQVINDLETLKARDVNWQGKCSGTVYIAGSESEGHFALINKAYSMFSHTNPLHQDVFKSVAQLEAEVVAMTAALLGIKEKSSGGQICGNMTSGGTESILLAVKTSRDYMRTKKGITKPEMIIAESAHSAYDKAAQYFNIKVRRVPVNKEFLADVKGFKRCINGNTIMMVGSAPGFPHGLIDPIEELGELASRYDICLHVDLCLGGFVLPFARKLGYPIPPFDFCVKGVTSISTDVHKYGLAPKGTSIVLYKNHEIRKHQFVAVTEWTGGLYVSPTIAGSRPGGLIAGAWAAMTSLGLNGYMENTGHIMEVSKKIQRGIEDIPGLFVIGKPDMTVVAFGSDSVDIFEVNDIMSSKGWHLNALQRPNSLHICVTLQHTVIYEEFLKDLKDSVDTVKANPGPISGGRAPIYGAAGKMPDRGMVRELLVEFMDASC
